The values below come from article PMC7466560.

The chains behind the UniProt entries cited, without tags or fusion partners.
UniProt Q15672: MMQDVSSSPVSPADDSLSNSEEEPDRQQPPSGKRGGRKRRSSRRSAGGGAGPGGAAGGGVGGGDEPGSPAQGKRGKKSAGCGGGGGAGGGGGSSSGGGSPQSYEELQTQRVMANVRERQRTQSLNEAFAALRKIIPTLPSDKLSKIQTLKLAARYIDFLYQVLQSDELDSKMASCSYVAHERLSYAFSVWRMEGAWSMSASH
UniProt Q9NQB0: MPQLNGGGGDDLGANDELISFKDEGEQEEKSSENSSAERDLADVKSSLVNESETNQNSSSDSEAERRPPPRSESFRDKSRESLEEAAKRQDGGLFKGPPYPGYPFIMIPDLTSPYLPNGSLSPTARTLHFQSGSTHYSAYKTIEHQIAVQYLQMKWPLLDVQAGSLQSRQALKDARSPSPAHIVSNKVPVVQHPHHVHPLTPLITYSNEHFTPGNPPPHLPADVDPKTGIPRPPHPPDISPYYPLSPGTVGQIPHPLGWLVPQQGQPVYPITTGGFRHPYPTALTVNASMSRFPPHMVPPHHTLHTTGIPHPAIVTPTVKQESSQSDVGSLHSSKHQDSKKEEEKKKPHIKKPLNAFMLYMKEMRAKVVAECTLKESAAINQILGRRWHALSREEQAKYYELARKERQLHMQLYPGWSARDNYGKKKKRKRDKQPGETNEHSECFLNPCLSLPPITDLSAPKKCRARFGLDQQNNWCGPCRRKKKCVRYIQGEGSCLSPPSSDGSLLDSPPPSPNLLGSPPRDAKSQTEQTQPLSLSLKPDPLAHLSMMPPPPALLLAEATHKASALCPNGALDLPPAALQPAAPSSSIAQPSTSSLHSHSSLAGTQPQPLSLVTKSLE
UniProt P35222: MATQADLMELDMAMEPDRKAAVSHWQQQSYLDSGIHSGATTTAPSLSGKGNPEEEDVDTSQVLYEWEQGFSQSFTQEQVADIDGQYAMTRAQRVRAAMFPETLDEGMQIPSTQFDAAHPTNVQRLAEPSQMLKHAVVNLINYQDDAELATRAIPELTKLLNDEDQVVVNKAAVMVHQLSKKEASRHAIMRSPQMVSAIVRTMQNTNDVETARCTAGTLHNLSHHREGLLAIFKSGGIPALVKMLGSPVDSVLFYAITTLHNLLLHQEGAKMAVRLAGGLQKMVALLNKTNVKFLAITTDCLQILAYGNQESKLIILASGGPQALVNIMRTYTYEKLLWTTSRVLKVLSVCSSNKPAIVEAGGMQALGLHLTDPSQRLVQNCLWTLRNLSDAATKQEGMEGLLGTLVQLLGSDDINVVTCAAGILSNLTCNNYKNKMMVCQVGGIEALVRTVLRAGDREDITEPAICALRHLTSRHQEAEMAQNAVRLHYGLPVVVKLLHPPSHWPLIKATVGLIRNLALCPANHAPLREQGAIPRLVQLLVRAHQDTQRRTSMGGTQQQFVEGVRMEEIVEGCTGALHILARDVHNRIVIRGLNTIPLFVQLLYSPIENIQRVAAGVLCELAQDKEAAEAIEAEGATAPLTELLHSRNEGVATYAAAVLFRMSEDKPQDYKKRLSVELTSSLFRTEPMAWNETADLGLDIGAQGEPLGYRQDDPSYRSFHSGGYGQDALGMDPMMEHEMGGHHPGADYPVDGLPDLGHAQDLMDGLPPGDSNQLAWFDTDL

For experiment [1], the target named is Twist1 (human (endogenous in primary dermal papilla cells)) (UniProt Q15672). The experiment is described as follows: co-IP; lysate of cultured DPCs (RIPA buffer) incubated overnight with anti-Twist1, anti-Tcf4 or IgG (negative control); protein A/G agarose; eluate analysed by Western blot.
In experiment [2] the target is Tcf4 (human (endogenous in primary dermal papilla cells)) (UniProt Q9NQB0). Described as above.

Results are given in words; binding and its absence hold for the method and conditions named. In cells and extracts the contact can be indirect. Some results given as binding are weak or reduced against the parent protein; the word gives no strength.

Turning to Tcf4 (from UniProt Q9NQB0 1-619), in experiment [1], the binding entry is reported as “binds”.

Consider Twist1 (from UniProt Q15672 1-202), for which, in experiment [2], the binding result was “binds”. In the case of β-catenin (from UniProt P35222 1-781), the binding result in experiment [1] is on record as “binds”.
